Data taken from patent publication US20100291089A1, “LIGAND OF REGULATING IMMUNE RESPONSE, AND USE THEREOF IN TREATING AN IMMUNE RESPONSE-RELATED DISEASE” (POSTECH ACADEMY-INDUSTRY FOUNDATION, priority 2005, published 2010).
For part of these data: Part of at least one peptide drawing is inferred or uncertain, most often the ends. For part of these data: At least one structure is not confirmed: it was looked up by name or label, or the drawing left a doubt. Where a SMILES comes first, the peptide text is derived from it.

How the values were obtained:
[1] = target: T1, FPRL1 (Homo sapiens, UniProt P25090); test: Intracellular calcium mobilization (fura-2) in FPRL1/RBL cells; type: cell-based
T1 construct: expressed in transfected cells
T1 sequence (P25090 1-351): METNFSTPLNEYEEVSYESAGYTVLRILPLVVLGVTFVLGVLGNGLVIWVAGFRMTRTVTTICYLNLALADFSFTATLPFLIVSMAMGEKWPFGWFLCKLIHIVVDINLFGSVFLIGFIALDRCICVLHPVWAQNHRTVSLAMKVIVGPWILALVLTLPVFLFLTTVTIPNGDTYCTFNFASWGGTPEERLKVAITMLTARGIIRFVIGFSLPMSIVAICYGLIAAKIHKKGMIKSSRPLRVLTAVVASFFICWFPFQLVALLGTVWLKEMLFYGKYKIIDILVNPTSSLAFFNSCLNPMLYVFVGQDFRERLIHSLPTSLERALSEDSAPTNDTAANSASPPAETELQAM
Experimental: FPRL1-expressing rat basophile leukemia (RBL)-2H3 (FPRL1/RBL), FPR-expressing RBL-2H3 (FPR/RBL), and vector-transfected RBL-2H3 (vector/RBL) were donated by Dr. Richard D. Ye (University of Illinois). FPRL1/RBL, FPR/RBL, and vector/RBL were maintained at 37° C. in a humidified 5% CO2 atmosphere in high glucose DMEM supplemented with 20% (vol/vol) heat-inactivated fetal calf serum and G418 ([…]). FPRL1/RBL, FPR/RBL, and vector/RBL were sub-cultured every three days. The prepared cells were used in the following examples.
Intracellular calcium concentrations ([Ca^2+]i) were determined using Grynkiewicz's method with fura-2/AM, as described in “Grynkiewicz, G., M. Poenie, and R. Y. Tsien. 1985. […] J. Biol. Chem. 260:3440-3450”. Briefly, the cells prepared in Example 1.2 were incubated with 3 µM fura-2/AM at 37° C. for 50 minutes in fresh serum free RPMI 1640 medium with continuous stirring. The incubated cells (2×10^6) were aliquoted for each assay in Ca^2+-free Locke's solution (154 mM NaCl, 5.6 mM KCl, 1.2 mM MgCl2, 5 mM HEPES (pH 7.3), 10 mM glucose, and 0.2 mM EGTA). Fluorescence changes at 340 and 380 nm using a common emission wavelength of 500 nm were measured, and fluorescence ratios were converted to [Ca2+]i, as described in above Grynkiewicz, G. et al.

[2] = system: RA FLS; test: Cell proliferation assay ([3H]-thymidine incorporation, cell counts) in RA FLS; type: cell-based, human; details: SAA 5 μM, 72 h, PTX 100 ng/ml, U73122 1 μM, PD98059 50 μM, LY294002 50 μM
Experimental: Fibroblast-like synoviocytes (FLS) were prepared from synovial samples obtained from patients suffering from RA and osteoarthritis (OA), all of whom were also undergoing total joint replacement surgery. The FLS were isolated from the synovial tissues in accordance with a previously described procedure (Cho, C. S., M. L. Cho, S. Y. Min, W. U. Kim, D. J. Min, S. S. Lee, S. H. Park, J. Choe, and H. Y. Kim. 2000. CD40 engagement on synovial fibroblast up-regulates production of vascular endothelial growth factor. J. Immunol. 164: 5055-5061).
In brief, fresh synovial tissues were minced into 2- to 3-mm pieces, then treated for 4 h with 4 mg/ml type I collagenase (Worthington Biochemical), and maintained in Dulbecco's Modified Eagle's Medium (DMEM) containing 10% FBS at 37° C. in an atmosphere containing 5% CO2. […]
The RA FLS, OA FLS, and HUVECs were plated onto 24-well culture dishes at a density of 2×10^4 cells/well, and then permitted to attach overnight. […] Cell growth was also evaluated via cell counts. Control and mitogen-treated cells were harvested by trypsinization, and the number of cells was determined with a hemocytometer, under ×100 magnification.

SMILES	[Ca2+]i increase / activation of FPRL1 [1]	blockage of the proliferative and anti-apoptotic activities of SAA [2]
CC[C@H](C)[C@H](NC(=O)CNC(=O)[C@H](CC(=O)O)NC(=O)[C@H](CO)NC(=O)[C@@H](N)Cc1c[nH]cn1)C(=O)N[C@@H](Cc1ccccc1)C(=O)N[C@H](C(=O)N[C@@H](CC(=O)O)C(=O)N[C@@H](CO)C(=O)N[C@@H](Cc1ccc(O)cc1)C(=O)N[C@@H](CO)C(=O)N[C@@H](CCCNC(=N)N)C(=O)N[C@@H](Cc1ccc(O)cc1)C(=O)N[C@@H](CCCNC(=N)N)C(=O)N[C@@H](CCCCN)C(=O)N[C@@H](CCC(N)=O)C(=O)N[C@@H](CCSC)C(=O)N[C@@H](C)C(=O)N[C@H](C(=O)N[C@@H](CCCCN)C(=O)N[C@@H](CCCCN)C(=O)N[C@@H](Cc1ccc(O)cc1)C(=O)N[C@@H](CC(C)C)C(=O)N[C@@H](C)C(=O)N[C@@H](CO)C(=O)N[C@H](C(=O)N[C@@H](CC(C)C)C(N)=O)C(C)C)C(C)C)[C@@H](C)O [cPACAP25VIP] (H-HSDGIFTDSYSRYRKQMAVKKYLASVL-NH2; N-terminus and C-terminus assumed)	pronounced loss of activity	–
O=c1cc(N2CCOCC2)oc2c(-c3ccccc3)cccc12 [LY294002]	–	almost complete blockage
CC[C@H](C)[C@H](NC(=O)CNC(=O)[C@H](CC(=O)O)NC(=O)[C@H](CO)NC(=O)[C@@H](N)Cc1c[nH]cn1)C(=O)N[C@@H](Cc1ccccc1)C(=O)N[C@H](C(=O)N[C@@H](CC(=O)O)C(=O)N[C@@H](CO)C(=O)N[C@@H](Cc1ccc(O)cc1)C(=O)N[C@@H](CO)C(=O)N[C@@H](CCCNC(=N)N)C(=O)N[C@@H](Cc1ccc(O)cc1)C(=O)N[C@@H](CCCNC(=N)N)C(=O)N[C@@H](CCCCN)C(=O)N[C@@H](CCC(N)=O)C(=O)N[C@@H](CCSC)C(=O)N[C@@H](C)C(=O)N[C@H](C(=O)N[C@@H](CCCCN)C(=O)N[C@@H](CCCCN)C(=O)N[C@@H](Cc1ccc(O)cc1)C(=O)N[C@@H](CC(C)C)C(=O)N[C@@H](CC(N)=O)C(=O)N[C@@H](C)C(=O)N[C@H](C(=O)N[C@@H](CC(C)C)C(N)=O)C(C)C)C(C)C)[C@@H](C)O [cPACAP24VIP] (H-HSDGIFTDSYSRYRKQMAVKKYLNAVL-NH2; N-terminus and C-terminus assumed)	pronounced loss of activity	–
